## Library screen at single concentrations

Chains of the proteins cited; added tags and fusions are not shown. Residues count along the entry.
UniProt A4I591, 1-473: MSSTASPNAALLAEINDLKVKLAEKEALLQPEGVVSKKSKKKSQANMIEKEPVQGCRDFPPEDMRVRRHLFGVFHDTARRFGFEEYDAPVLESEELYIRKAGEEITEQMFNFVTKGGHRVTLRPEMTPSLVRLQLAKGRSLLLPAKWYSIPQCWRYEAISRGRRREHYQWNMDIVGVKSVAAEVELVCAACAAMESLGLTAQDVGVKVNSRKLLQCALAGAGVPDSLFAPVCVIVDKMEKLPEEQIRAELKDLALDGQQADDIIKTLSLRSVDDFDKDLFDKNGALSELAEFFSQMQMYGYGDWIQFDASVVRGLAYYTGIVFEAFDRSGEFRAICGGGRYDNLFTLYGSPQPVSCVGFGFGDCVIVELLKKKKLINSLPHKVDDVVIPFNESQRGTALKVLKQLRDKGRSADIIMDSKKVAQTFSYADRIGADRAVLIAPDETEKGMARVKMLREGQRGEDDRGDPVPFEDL
UniProt Q4DA54, 1-478: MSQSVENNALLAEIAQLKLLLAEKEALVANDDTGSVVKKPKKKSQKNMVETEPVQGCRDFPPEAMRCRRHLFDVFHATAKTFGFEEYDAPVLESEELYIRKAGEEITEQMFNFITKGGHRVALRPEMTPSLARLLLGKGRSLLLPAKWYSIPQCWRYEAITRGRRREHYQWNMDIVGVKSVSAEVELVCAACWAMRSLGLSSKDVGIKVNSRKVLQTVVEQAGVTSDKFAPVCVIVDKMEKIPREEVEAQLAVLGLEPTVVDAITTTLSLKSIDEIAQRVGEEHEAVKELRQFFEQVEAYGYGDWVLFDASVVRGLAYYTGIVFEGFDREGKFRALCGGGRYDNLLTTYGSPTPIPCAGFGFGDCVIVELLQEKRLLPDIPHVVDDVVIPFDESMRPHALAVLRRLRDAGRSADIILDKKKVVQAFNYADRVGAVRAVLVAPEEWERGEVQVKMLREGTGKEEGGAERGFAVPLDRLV
UniProt Q8IDJ8, 1-583: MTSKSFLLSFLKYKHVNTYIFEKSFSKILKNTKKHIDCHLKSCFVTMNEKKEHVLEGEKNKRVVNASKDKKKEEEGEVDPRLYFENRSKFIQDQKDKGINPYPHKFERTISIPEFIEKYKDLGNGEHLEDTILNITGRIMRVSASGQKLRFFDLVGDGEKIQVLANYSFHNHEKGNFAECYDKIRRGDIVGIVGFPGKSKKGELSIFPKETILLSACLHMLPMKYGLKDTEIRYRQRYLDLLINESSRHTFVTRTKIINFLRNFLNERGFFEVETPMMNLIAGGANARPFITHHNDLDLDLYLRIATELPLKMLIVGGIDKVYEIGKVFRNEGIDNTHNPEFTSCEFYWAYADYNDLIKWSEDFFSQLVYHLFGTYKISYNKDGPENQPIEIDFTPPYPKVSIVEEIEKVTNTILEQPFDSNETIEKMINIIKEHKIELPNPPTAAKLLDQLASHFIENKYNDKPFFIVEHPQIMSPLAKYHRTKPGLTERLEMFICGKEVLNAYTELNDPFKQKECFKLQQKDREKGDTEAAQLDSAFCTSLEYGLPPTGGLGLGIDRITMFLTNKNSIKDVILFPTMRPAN

From ChEMBL document CHEMBL3988442, “University of Dundee, Small-Polar-MMV Screening Library” (2021).

A: 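Histidine-tRNA ligase, Leishmania infantum (UniProt A4I591). Enzyme assay of histidyl-tRNA synthetase; the read-out is not stated. Compounds at 30 µM. Direction is inferred from retests: higher values go with stronger inhibition. The assay is labelled LdHisRS but filed under L. infantum. Of about 69,000 compounds tested this way, about 410 (0.6%) reached 50% or more in at least one test.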
B: 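Histidine-tRNA ligase, Trypanosoma cruzi CL Brener (UniProt Q4DA54). Enzyme assay of histidyl-tRNA synthetase; the read-out is not stated. Tested at 30 µM. The record gives no direction; compounds that gave an IC50 in retests scored well above the rest, so higher reads as stronger inhibition. About 69,000 compounds were tested under these conditions; 0.045% (about 31) showed 50% or more at least once.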
C: 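Enzyme assay of the cytosolic lysyl-tRNA synthetase in 384-well plates, read by luminescence. Target: Lysine-tRNA ligase, Plasmodium falciparum 3D7 (UniProt Q8IDJ8). Compounds at 30 µM. Higher reads as stronger inhibition, judged from the few compounds that gave an IC50. About 69,000 compounds were tested under these conditions; 0.071% (about 49) showed 50% or more at least once.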
D: 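Cell assay of Leishmania donovani living inside macrophages; the read-out is not stated. Concentration: 30 µM. Higher reads as stronger inhibition (inferred: compounds with an IC50 in retests scored well above the rest). Size under these conditions: about 69,000 compounds, about 1,000 of them at 50% or above in at least one test.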

Results are given as percent effect.
The controls that fix the scale are not given in the record; negative values are as filed.
This is an unselected part of the compounds tested.
Two or more numbers in one place are separate tests of the same structure; such repeats can differ widely.

Cc1oncc1C(=O)NCc1ccnc(OCC(F)(F)F)c1 gave A: 0%; B: -1.183%; C: -1.123%; D: 14.93%. For C[C@]1(O)CN(CC(=O)N2CCCC2)CC[C@@H]1Oc1cccc(F)c1 the result was A: 21.74%; B: 7.692%; C: 1.376%; D: 5.621% & -4.734%. Result for CN(C)C1CCN(C(=O)NCc2ccc(Cn3cncn3)cc2)CC1 was A: 13.46%; B: -3.333%; C: -1.179%; D: 13.28%. With CN1CCCCC(C2CCN(S(=O)(=O)c3cn(C)cn3)CC2)C1=O (stereo unspecified) the screen gave A: 9.396%; B: 2.571%; C: -0.5471%; D: -34.23%.

CCCc1cc(NCc2cc(C)on2)n2nccc2n1 gave A: 28.57%; B: 4.124%; C: -5.431%; D: -6.983%. With CN(C)CCN(C)C(=O)Cc1ccc2c(c1)OCCO2 the screen gave A: 4.348%; B: 14.29%; C: 4.398%. With O=C(NCCNCc1cccc2c1OCCCO2)C1CCCC1 the screen gave A: 9.804%; B: 4.938%; C: 4.966%; D: -16.05%. Result for COC(=O)c1cccnc1N1CCC(Oc2cccc(F)c2)CC1 was A: 9.756%; B: 10.1%; C: -0.07624%; D: 1.655%.

COc1cc(C#N)ccc1OCCN1CCC(n2ccnc2)CC1 read A: 0.8403%; B: -6.863%; C: -1.09%; D: 24.82%. O=C(O)[C@@H]1CN(C(=O)CN2CCCCCC2)C[C@H]1c1ccccc1 read A: 30.97%; B: 39.2%; C: 6.558%; D: 26.96%. For COc1ccc(S(=O)(=O)NCCC(O)c2cccs2)c(C)c1 (stereo unspecified) the result was A: 6.957%; B: 1.031%; C: 0.9846%; D: 18.75% & 65.56%. Result for CN1CC(=O)N(c2cccc(F)c2)CC12CCN(Cc1nccs1)C2 (stereo unspecified) was A: 4.425%; B: 6.452%; C: 0.5542%.

COC1CCN(CCNc2ncc(Br)cc2C)CC1 gave A: 23.08%; B: -0.5618%; C: 4.009%; D: -8.998%. For O=C(C1CCOc2ccccc21)N1CCOc2ccc(F)cc21 (stereo unspecified) the result was A: -10.96%; B: 2.105%; C: 4.486%; D: 12.86%. CNc1ccc(CC2CCCN(C(=O)c3scnc3C)C2)nn1 (stereo unspecified) read A: 18.84%; B: 12.09%; C: 5.687%; D: 19.44% & 16.98%. Cc1nc(NCCC23CCCN2CCC3)cc(C2CCNCC2)n1 gave A: 24.29%; B: 8.511%; C: 6.434%; D: 16.35%.

CCn1ncc(C(=O)NCCc2nc(-c3ccc(C)cc3)n[nH]2)c1C gave A: 12.77%; B: 9.302%; C: 0.2146%; D: 28.46%. With O=C(O)C(F)(F)F.[H][C@]12CCCN(Cc3ccc(C)s3)[C@@]1([H])CN(C(=O)c1ccco1)C2 the screen gave D: 20.28%. For COCc1nc(C)cc(Nc2ccc3c(c2)CC(=O)N3)n1 the result was A: 8.065%; B: 3.093%; C: 4.298%; D: 15.98%. For c1cnc(N2C[C@H]3CCN(CC4CC4)C[C@H]3C2)cn1 the result was A: 11.88%; B: 2.513%; C: 2.029%.

For c1ccc(Cc2noc(CN3CCOC(Cn4cncn4)C3)n2)cc1 (stereo unspecified) the result was A: -3.636%; B: -1.754%; C: -1.569%; D: 2.767%. O=C(NCC1(c2ccc(F)cc2)CC1)N1CCC2(CCOC2)C1 (stereo unspecified) read A: 3.175%; B: 4.04%; C: 1.145%; D: -11.85%.

2 of the entries, repeated:

* CN(C)C1CCN(C(=O)NCc2ccc(Cn3cncn3)cc2)CC1 | A: 13.46%; B: -3.333%; C: -1.179%; D: 13.28%
* Cc1oncc1C(=O)NCc1ccnc(OCC(F)(F)F)c1 | A: 0%; B: -1.183%; C: -1.123%; D: 14.93%